We go through four molecules from paper PMC5601897, “The catalytic subunit of DNA polymerase δ inhibits γTuRC activity and regulates Golgi-derived microtubules” (Nature Communications, 2017).

The chains behind the UniProt entries cited, without tags or fusion partners. Where a name states a change or a piece, a line headed by the entry shows the natural chain unless it says otherwise.
UniProt P28340: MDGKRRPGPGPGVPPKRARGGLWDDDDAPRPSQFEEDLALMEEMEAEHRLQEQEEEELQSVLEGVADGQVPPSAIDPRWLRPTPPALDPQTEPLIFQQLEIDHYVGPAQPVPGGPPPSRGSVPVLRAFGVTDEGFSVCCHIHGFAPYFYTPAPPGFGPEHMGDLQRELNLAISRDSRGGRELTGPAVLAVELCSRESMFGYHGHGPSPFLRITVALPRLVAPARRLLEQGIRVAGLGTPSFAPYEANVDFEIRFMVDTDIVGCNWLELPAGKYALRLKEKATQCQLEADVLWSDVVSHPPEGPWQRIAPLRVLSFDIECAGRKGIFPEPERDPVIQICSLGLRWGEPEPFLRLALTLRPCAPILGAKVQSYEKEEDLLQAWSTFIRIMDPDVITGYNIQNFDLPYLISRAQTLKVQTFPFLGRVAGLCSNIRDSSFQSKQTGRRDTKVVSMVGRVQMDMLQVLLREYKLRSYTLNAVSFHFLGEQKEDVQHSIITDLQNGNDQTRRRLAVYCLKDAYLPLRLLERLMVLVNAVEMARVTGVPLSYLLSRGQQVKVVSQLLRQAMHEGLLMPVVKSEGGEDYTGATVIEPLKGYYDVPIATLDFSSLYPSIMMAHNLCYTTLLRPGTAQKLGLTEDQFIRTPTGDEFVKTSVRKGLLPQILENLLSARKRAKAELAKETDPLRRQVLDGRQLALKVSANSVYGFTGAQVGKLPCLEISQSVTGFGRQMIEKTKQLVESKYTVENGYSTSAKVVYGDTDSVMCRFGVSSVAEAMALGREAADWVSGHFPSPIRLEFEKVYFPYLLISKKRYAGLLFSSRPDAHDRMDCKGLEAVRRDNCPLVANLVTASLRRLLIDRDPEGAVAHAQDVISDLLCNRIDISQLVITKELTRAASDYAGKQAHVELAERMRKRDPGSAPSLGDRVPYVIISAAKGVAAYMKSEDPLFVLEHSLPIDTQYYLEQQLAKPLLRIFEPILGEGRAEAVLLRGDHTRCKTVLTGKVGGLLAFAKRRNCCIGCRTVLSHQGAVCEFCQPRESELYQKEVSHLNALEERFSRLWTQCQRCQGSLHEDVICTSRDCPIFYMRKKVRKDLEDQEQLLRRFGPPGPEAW
UniProt P49005: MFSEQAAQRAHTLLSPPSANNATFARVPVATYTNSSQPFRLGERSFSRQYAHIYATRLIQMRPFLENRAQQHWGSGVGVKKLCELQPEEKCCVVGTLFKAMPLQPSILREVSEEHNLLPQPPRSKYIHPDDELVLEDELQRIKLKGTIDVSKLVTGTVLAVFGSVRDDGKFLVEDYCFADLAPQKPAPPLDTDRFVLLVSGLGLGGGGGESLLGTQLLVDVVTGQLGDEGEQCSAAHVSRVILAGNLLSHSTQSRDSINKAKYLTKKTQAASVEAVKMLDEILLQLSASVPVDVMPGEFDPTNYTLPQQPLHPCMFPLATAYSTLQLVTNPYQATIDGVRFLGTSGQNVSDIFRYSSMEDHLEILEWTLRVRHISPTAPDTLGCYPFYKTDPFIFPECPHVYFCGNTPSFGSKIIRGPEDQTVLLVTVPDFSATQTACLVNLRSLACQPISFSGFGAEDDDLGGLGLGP

Experiment [1] has as its target T1, FLAG-2 × TEV-SBP-CDK5RAP2(1–100) (UniProt Q96SN8).
T1 sequence: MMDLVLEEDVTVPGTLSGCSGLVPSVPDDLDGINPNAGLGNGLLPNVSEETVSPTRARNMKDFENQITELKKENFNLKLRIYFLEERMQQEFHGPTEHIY
As to the kind of experiment: affinity purification with mass spectrometry; anti-FLAG immunoprecipitation of FLAG-2 × TEV-SBP-CDK5RAP2(1–100) from a 1:1 mixture of transfected and untransfected HEK293T cell extracts (lysis buffer with 0.5% IGEPAL CA-630, 0.2 mM GTP, 4 °C, 2 h), no streptavidin pulldown; elution with FLAG peptide, SDS-PAGE bands, trypsin, LC-MS, MASCOT.

The target of experiment [2] is T1, FLAG-2 × TEV-SBP-CDK5RAP2(1–100). The experiment is described as above. This is another data set of the same source.

Read-outs that look alike come from different tables or passages of the source. These are yes or no findings as the source states them, for the method shown. Binding seen in cells or lysates may run through a third protein. These calls come from enrichment with a bait or labelling near it, and not all partners need be listed. No binding means not detected with the bait. Sequences can lack the tags named with a protein.

In the case of “DNA polymerase δ catalytic subunit (PolD1), endogenous (from UniProt P28340 1-1107)”, the binding result in experiment [1] is “binds”.
Same read-out and setting: as for “PolD2, endogenous (from UniProt P49005 1-469)”, the entry is “no binding”.

B1: PolD3, endogenous (protein, UniProt Q15054 1-466)
chain: MADQLYLENIDEFVTDQNKIVTYKWLSYTLGVHVNQAKQMLYDYVERKRKENSGAQLHVTYLVSGSLIQNGHSCHKVAVVREDKLEAVKSKLAVTASIHVYSIQKAMLKDSGPLFNTDYDILKSNLQNCSKFSAIQCAAAVPRAPAESSSSSKKFEQSHLHMSSETQANNELTTNGHGPPASKQVSQQPKGIMGMFASKAAAKTQETNKETKTEAKEVTNASAAGNKAPGKGNMMSNFFGKAAMNKFKVNLDSEQAVKEEKIVEQPTVSVTEPKLATPAGLKKSSKKAEPVKVLQKEKKRGKRVALSDDETKETENMRKKRRRIKLPESDSSEDEVFPDSPGAYEAESPSPPPPPSPPLEPVPKTEPEPPSVKSSSGENKRKRKRVLKSKTYLDGEGCIVTEKVYESESCTDSEEELNMKTSSVHRPPAMTVKKEPREERKGPKKGTAALGKANRQVSITGFFQRK
B1: in experiment [2], the binding result was “no binding”.

B2: PolD4, endogenous (protein, UniProt Q9HCU8 1-107)
chain: MGRKRLITDSYPVVKRREGPAGHSKGELAPELGEEPQPRDEEEAELELLRQFDLAWQYGPCTGITRLQRWCRAKQMGLEPPPEVWQVLKTHPGDPRFQCSLWHLYPL
As to B2, the binding entry in experiment [2] was “no binding”.
